Experimental data from EPA's CvTdb concentration-time database.

What was measured:
Rat [1] = test: concentration in plasma after dosing; conditions: dosed: Benzophenone, 5 mg/kg, oral, Male, F344
Mouse [2] = test: concentration in plasma after dosing; conditions: 0.5 h; dosed: Benzophenone; 60 mg/kg; oral; Male; B6C3F1
Rat [3] = test: concentration in blood after dosing; conditions: 5 min; dosed: Benzophenone; 5 mg/kg; oral; Female; F344
Rat [4] = test: concentration in blood after dosing; conditions: 0.125 h; dosed: Benzophenone; 5 mg/kg; oral; Male; F344
Rat [5] = test: concentration in plasma after dosing; conditions: dosed: Benzophenone, 5 mg/kg, oral, Female, F344
Mouse [6] = test: concentration in plasma after dosing; conditions: 1.5 h; dosed: Benzophenone; 15 mg/kg; oral; Male; B6C3F1
Mouse [7] = test: concentration in plasma after dosing; conditions: 2 h; dosed: Benzophenone; 15 mg/kg; iv; Female; B6C3F1
Rat [8] = test: concentration in plasma after dosing; conditions: 16 h; dosed: Benzophenone; 10 mg/kg; oral; Male; F344
Rat [9] = test: concentration in blood after dosing; conditions: 0.5 h; dosed: Benzophenone; 5 mg/kg; oral; Male; F344
Rat [10] = test: concentration in blood after dosing; conditions: 5 min; dosed: Benzophenone; 10 mg/kg; oral; Female; F344
Mouse [11] = test: concentration in plasma after dosing; conditions: 0.125 h; dosed: Benzophenone; 30 mg/kg; oral; Female; B6C3F1
Rat [12] = test: concentration in plasma after dosing; conditions: dosed: Benzophenone, 10 mg/kg, oral, Female, F344
Mouse [13] = test: concentration in plasma after dosing; conditions: 0.125 h; dosed: Benzophenone; 15 mg/kg; oral; Male; B6C3F1
Mouse [14] = test: concentration in plasma after dosing; conditions: 0.125 h; dosed: Benzophenone; 60 mg/kg; oral; Male; B6C3F1
Mouse [15] = test: concentration in plasma after dosing; conditions: 10 min; dosed: Benzophenone; 15 mg/kg; oral; Female; B6C3F1
Mouse [16] = test: concentration in plasma after dosing; conditions: 0.75 h; dosed: Benzophenone; 15 mg/kg; iv; Female; B6C3F1
Rat [17] = test: concentration in blood after dosing; conditions: 5 min; dosed: Benzophenone; 5 mg/kg; oral; Male; F344
Rat [18] = test: concentration in plasma after dosing; conditions: dosed: Benzophenone, 10 mg/kg, oral, Female, F344; remark: listed apart in the source
Rat [19] = test: concentration in blood after dosing; conditions: 5 min; dosed: Benzophenone; 5 mg/kg; oral; Female; F344; remark: listed apart in the source
Mouse [20] = test: concentration in plasma after dosing; conditions: 3 h; dosed: Benzophenone; 30 mg/kg; oral; Female; B6C3F1
Rat [21] = test: concentration in plasma after dosing; conditions: dosed: Benzophenone, 10 mg/kg, oral, Female, F344; remark: listed apart in the source
Rat [22] = test: concentration in plasma after dosing; conditions: dosed: Benzophenone, 10 mg/kg, oral, Female, F344; remark: listed apart in the source
Rat [23] = test: concentration in blood after dosing; conditions: 10 min; dosed: Benzophenone; 10 mg/kg; oral; Male; F344
Mouse [24] = test: concentration in plasma after dosing; conditions: 2.5 min; dosed: Benzophenone; 60 mg/kg; oral; Male; B6C3F1
Rat [25] = test: concentration in blood after dosing; conditions: 5 min; dosed: Benzophenone; 5 mg/kg; oral; Male; F344; remark: listed apart in the source
Rat [26] = test: concentration in plasma after dosing; conditions: dosed: Benzophenone, 5 mg/kg, oral, Female, F344; remark: listed apart in the source
Mouse [27] = test: concentration in plasma after dosing; conditions: 0.75 h; dosed: Benzophenone; 15 mg/kg; oral; Female; B6C3F1
Rat [28] = test: concentration in plasma after dosing; conditions: dosed: Benzophenone, 5 mg/kg, oral, Female, F344; remark: listed apart in the source
Mouse [29] = test: concentration in plasma after dosing; conditions: 10 min; dosed: Benzophenone; 60 mg/kg; oral; Female; B6C3F1
Mouse [30] = test: concentration in plasma after dosing; conditions: 1 h; dosed: Benzophenone; 60 mg/kg; oral; Male; B6C3F1
Mouse [31] = test: concentration in plasma after dosing; conditions: 0.75 h; dosed: Benzophenone; 15 mg/kg; oral; Female; B6C3F1; remark: listed apart in the source
Rat [32] = test: concentration in plasma after dosing; conditions: dosed: Benzophenone, 5 mg/kg, oral, Female, F344; remark: listed apart in the source
Rat [33] = test: concentration in plasma after dosing; conditions: dosed: Benzophenone, 10 mg/kg, oral, Male, F344
Rat [34] = test: concentration in plasma after dosing; conditions: dosed: Benzophenone, 10 mg/kg, oral, Female, F344; remark: listed apart in the source
Mouse [35] = test: concentration in plasma after dosing; conditions: 2.5 min; dosed: Benzophenone; 60 mg/kg; oral; Female; B6C3F1
Rat [36] = test: concentration in blood after dosing; conditions: dosed: Benzophenone, oral, F344
Mouse [37] = test: concentration in plasma after dosing; conditions: 7 min; dosed: Benzophenone; 15 mg/kg; iv; Male; B6C3F1
Mouse [38] = test: concentration in plasma after dosing; conditions: 3 h; dosed: Benzophenone; 15 mg/kg; iv; Female; B6C3F1

O=C(c1ccccc1)c1ccccc1 [Benzophenone]
Conditions	concentration in plasma [µg/mL]
Rat [1], 0.5 h	0.16
Rat [1], 10 h	0.0349
Rat [5], 0.25 h	0.255
Rat [5], 24 h	0.0121
Rat [12], 1 h	0.286
Rat [12], 2.5 min	0.119
Rat [18], 0.125 h	0.619
Rat [18], 3 h	0.225
Rat [21], 0.5 h	0.474
Rat [21], 10 h	0.0843
Rat [22], 2 h	0.28
Rat [22], 5 min	0.217
Rat [26], 0.5 h	0.22
Rat [26], 10 h	0.0585
Rat [28], 6 h	0.0711
Rat [28], 10 min	0.155
Rat [32], 6 h	0.0715
Rat [32], 10 min	0.228
Rat [33], 0.5 h	0.484
Rat [33], 10 h	0.105
Rat [34], 0.125 h	0.527
Rat [34], 3 h	0.0746

Conditions	concentration in blood [µg/mL]	concentration in plasma [µg/mL]
Mouse [2]	–	1.95
Mouse [6]	–	0.0579
Mouse [7]	–	0.0979
Mouse [11]	–	0.926
Mouse [13]	–	0.755
Mouse [14]	–	3.26
Mouse [15]	–	0.529
Mouse [16]	–	0.381
Mouse [20]	–	0.0633
Mouse [24]	–	2.65
Mouse [27]	–	0.222
Mouse [29]	–	2.75
Mouse [30]	–	0.661
Mouse [31]	–	0.158
Mouse [35]	–	1.42
Mouse [37]	–	4.1
Mouse [38]	–	0.154
Rat [3]	0.549	–
Rat [4]	0.306	–
Rat [8]	–	0.0626
Rat [9]	0.406	–
Rat [10]	2.02	–
Rat [17]	0.314	–
Rat [19]	0.778	–
Rat [23]	0.561	–
Rat [25]	0.256	–

concentration in blood [µg/mL], Rat [36]
Conditions	0.125 h	0.25 h	0.5 h	5 min	10 min
5 mg/kg, Female	0.689	0.843	0.928	0.597	0.647
5 mg/kg, Male	0.517	1.01	0.427	0.212	0.486
10 mg/kg, Female	1.59	1	1.89	1.9	1.01
10 mg/kg, Male	1.03	0.804	1.12	1.41	1.84
